Values quoted from earlier work as cited in patent US20170261495A1, “MODEL SYSTEMS FOR SCREENING MODULATORS OF mTOR SIGNALING” (SHRINERS HOSPITALS FOR CHILDREN, priority 2015, published 2017).
At least one structure is not confirmed: it was looked up by name or label, or the drawing left a doubt.

Columns and labels:
[1] = clinical trials
[2] = tested on: abnormalities in morphology, motility, and path finding resulting from STRADA loss; details: aberrant mTOR activation (Orlova et al., 2010; Parker et al., 2013)
[3] = PMSE patients, treatment prior to or at the onset of seizures (Parker et al., 2013)

SMILES: CO[C@H]1C[C@@H]2CC[C@@H](C)[C@@](O)(O2)C(=O)C(=O)N2CCCC[C@H]2C(=O)O[C@H]([C@H](C)C[C@@H]2CC[C@@H](O)[C@H](OC)C2)CC(=O)[C@H](C)/C=C(\C)[C@@H](O)[C@@H](OC)C(=O)[C@H](C)C[C@H](C)/C=C/C=C/C=C/1C [rapamycin]
- effects on epilepsy ([1]; TSC): minimal
- size of renal and brain tumors ([1]; TSC (Krueger et al., 2010)): clear reduction
- rescue of abnormalities in morphology, motility, and path finding [2]: can be rescued
- development of intractable epilepsy [3]: suppressed the development of intractable epilepsy
